Test results reported in PubChem BioAssay AID1487 (National Center for Advancing Translational Sciences (NCATS), 2009).
Some of the results follow. These are further read-outs of the screen, such as a control signal, another cell line or another target. No call is given for them. Compounds called inactive in the main read-out are mostly missing here. Words in brackets tell the shape of the fitted curve; partial curves, single points and poor fits give uncertain potencies.

Assay: qHTS Assay for Modulators of Lamin A Splicing
Conditions: HeLa LMNA splicing GFP/RFP minigene ratio, 48 h
How it was run: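 S3 HeLa cells stably expressing lamin A-EGFP splicing minigene plus DsRed2, 600 cells/well, 48 h compound exposure at 37C. Laser-scanning cytometry; analysed as GFP (500-530 nm)/RFP (575-640 nm) total intensity ratio; 0.5% DMSO vehicle.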

[1] = measured here: GFP splicing reporter channel
[2] = measured here: RFP viability control channel

**Q.** Which AC50 [1] does the source give for `CCOC(=O)c1c(NC(=O)CCN2C(=O)c3cccc([N+](=O)[O-])c3C2=O)sc(C(=O)OC(C)C)c1C` here?
**A.** 2.51 µM [falling, full curve, poor fit]

**Q.** Which results are given for `CCOC(=O)C1(Cc2cccc(F)c2)CCN(Cc2nc(CC)[nH]c2C)CC1`?
**A.** AC50 [1]: 6.31 µM [falling, partial curve, poor fit]; AC50 [2]: 0.794 µM [falling, full curve, poor fit]

**Q.** Which AC50 [1] does the source give for `CC(C)C(=O)N1CCN(c2ccc([N+](=O)[O-])cc2Cl)CC1` here?
**A.** 14.1 µM [rising, single point]

**Q.** And the AC50 [2]?
**A.** 15.8 µM [rising, single point]

**Q.** For `c1ccc(Cn2nc(-c3ccccc3)nc2-c2ccccc2)cc1`, which AC50 [2] is on record?
**A.** 14.1 µM [rising, partial curve]

**Q.** With `Cn1cnnc1SCC(=O)Nc1cc(C(=O)O)cc(C(=O)O)c1` as the compound, how does the AC50 [1] read?
**A.** 0.178 µM [falling, full curve, poor fit]

**Q.** For `O=C(c1ccccc1)N1CCN(c2ncnc3sc4c(c23)CCC4)CC1`, which AC50 [2] is on record?
**A.** 12.6 µM [rising, partial curve]

**Q.** For `O=C(NCCCN1CCCC1)c1cc2c(Cl)nc3ccccc3c2s1`, which AC50 [1] is on record?
**A.** 7.94 µM [falling, partial curve, poor fit]

**Q.** For `CC1CCCN(c2nc(NCc3ccco3)nc(N)c2[N+](=O)[O-])C1` (stereo not given), which AC50 [2] is on record?
**A.** 8.91 µM [rising, partial curve]

**Q.** With `COc1ccc(-c2ccc(CNc3ccc4[nH]c(=O)[nH]c4c3)o2)cc1Cl` as the compound, how does the AC50 [2] read?
**A.** 25.1 µM [falling, single point]

**Q.** Which AC50 [2] does the source give for `NS(=O)(=O)c1ccc(NC(=O)COC(=O)C2(c3ccc(F)cc3)CCCC2)cc1` here?
**A.** 22.4 µM [rising, single point]

**Q.** With `Cc1cc(C)nc(-n2nc(C)cc2Nc2ccccc2)n1` as the compound, how does the AC50 [1] read?
**A.** 10 µM [rising, single point]

**Q.** What about the AC50 [2] of the same compound?
**A.** 11.2 µM [rising, partial curve]

**Q.** For `O=C(NCc1ccco1)C(=O)NCC1OCCCN1S(=O)(=O)c1ccc(Cl)cc1` (stereo not given), which AC50 [2] is on record?
**A.** 7.08 µM [rising, full curve, poor fit]

**Q.** With `Cn1c(CCN2CCCCC2)nc2cc(NS(=O)(=O)c3ccc(F)cc3)ccc21` as the compound, how does the AC50 [2] read?
**A.** 14.1 µM [rising, partial curve]

**Q.** What does the source list for `COC(=O)c1ccc(COc2ccccc2/C=N/NS(=O)(=O)c2ccccc2)cc1`?
**A.** AC50 [1]: 14.1 µM [rising, partial curve, poor fit]; AC50 [2]: 14.1 µM [rising, partial curve]

**Q.** Which AC50 [2] does the source give for `CC(C)OC(=O)c1ccc(Cn2nnc3ccccc3c2=O)cc1` here?
**A.** 15.8 µM [rising, single point]

**Q.** Which results are given for `COc1ccc(S(=O)(=O)c2c(Nc3ccc(C)cc3)sc(C(=O)c3ccc(C)cc3)c2N)cc1`?
**A.** AC50 [1]: 15.8 µM [rising, single point]; AC50 [2]: 11.2 µM [rising, partial curve]

**Q.** Which AC50 [2] does the source give for `CCOc1ccc2nc(-c3ccccc3)[nH]c2c1` here?
**A.** 1 µM [rising, partial curve]

**Q.** With `OCCN1CCN(c2nc(-c3ccccc3)nc3c2oc2ccccc23)CC1` as the compound, how does the AC50 [1] read?
**A.** 31.6 µM [rising, single point]

**Q.** What about the AC50 [2] of the same compound?
**A.** 31.6 µM [rising, single point]

**Q.** Which results are given for `Cc1cccc(C(=O)NCC(c2ccc3c(c2)OCO3)N2CCN(c3ccccc3F)CC2)c1` (stereo not given)?
**A.** AC50 [1]: 35.5 µM [falling, partial curve, poor fit]; AC50 [2]: 0.0891 µM [falling, full curve, poor fit]

**Q.** Which AC50 [2] does the source give for `CC/C(=N\NC(=O)c1ccc(N(C)C)cc1)c1ccccc1` here?
**A.** 15.8 µM [rising, single point]

**Q.** For `C=CCSc1nc(N)c(C#N)c(-c2ccccc2)c1C#N`, which AC50 [1] is on record?
**A.** 0.112 µM [rising, full curve, poor fit]

**Q.** Which AC50 [1] does the source give for `NC(=O)CCn1ccc2ccccc21` here?
**A.** 1.12 µM [rising, partial curve, poor fit]

**Q.** For `CCOc1ccc(C(=O)NCC(c2cccs2)N(C)C)cc1` (stereo not given), which AC50 [1] is on record?
**A.** 0.0251 µM [falling, full curve, poor fit]

**Q.** For `O=C(O)CCN(Cc1ccccc1)S(=O)(=O)c1ccc(Cl)cc1F`, which AC50 [2] is on record?
**A.** 0.00562 µM [falling, full curve]

**Q.** Which AC50 [2] does the source give for `CC(C)(C)n1nnnc1SCC(=O)Nc1nn(-c2ccccc2)nc1C(N)=O` here?
**A.** 0.00316 µM [falling, full curve, poor fit]

**Q.** Which results are given for `Clc1ncc(CN2CCN(c3ccccc3)CC2)s1`?
**A.** AC50 [1]: 0.01 µM [falling, full curve]; AC50 [2]: 0.00355 µM [falling, full curve, poor fit]

**Q.** What does the source list for `C=CCN(C(=O)c1csnn1)C(C(=O)NC(C)(C)C)c1ccncc1` (stereo not given)?
**A.** AC50 [1]: 0.00316 µM [rising, full curve, poor fit]; AC50 [2]: 0.00355 µM [rising, full curve, poor fit]

**Q.** Which AC50 [1] does the source give for `CC(=O)c1c(C)n(CC(=O)NCc2ccc3c(c2)OCO3)c2ccccc12` here?
**A.** 4.47 µM [rising, single point]

**Q.** And the AC50 [2]?
**A.** 3.55 µM [rising, full curve]

**Q.** With `Cn1ccc(NC(=O)Nc2cccc(C(F)(F)F)c2)n1` as the compound, how does the AC50 [1] read?
**A.** 0.562 µM [rising, full curve, poor fit]

**Q.** What does the source list for `Brc1cc2c(cc1/C=N/Nc1nc3ccccc3s1)OCO2`?
**A.** AC50 [1]: 22.4 µM [falling, single point]; AC50 [2]: 35.5 µM [falling, partial curve]

**Q.** For `COc1ccccc1NC(=O)C1=C(C)N(c2ccccc2)C(=S)NC1c1cccc(C(F)(F)F)c1` (stereo not given), which AC50 [1] is on record?
**A.** 15.8 µM [falling, single point]

**Q.** And the AC50 [2]?
**A.** 14.1 µM [falling, partial curve]

**Q.** With `COc1ccc(C(C)=O)c2c1OCCO2` as the compound, how does the AC50 [2] read?
**A.** 35.5 µM [rising, single point]

**Q.** Which AC50 [1] does the source give for `CCC(C)(C)NC(=O)CC(c1ccc(OC)cc1)n1cccc1` (stereo not given) here?
**A.** 35.5 µM [rising, single point]

**Q.** And the AC50 [2]?
**A.** 35.5 µM [rising, single point]

**Q.** Which AC50 [1] does the source give for `COc1cc(/C=C\C(=O)N2CCC=CC2=O)cc(OC)c1OC` here?
**A.** 3.55 µM [falling, partial curve]

**Q.** What about the AC50 [2] of the same compound?
**A.** 3.16 µM [falling, partial curve]

**Q.** With `CCc1nc(N2CCCCC2)c2oc3ccccc3c2n1` as the compound, how does the AC50 [1] read?
**A.** 11.2 µM [rising, single point]

**Q.** And the AC50 [2]?
**A.** 11.2 µM [rising, single point]
